Results as given in patent publication US5716964A, “Tetrazolyl substituted imidazo[1,2-a]pyridinylalkyl compounds for treatment of neurotoxic injury” (G.D. Searle & Co., priority 1995, dated 1998).
Where a name gives a salt, the structure may show the parent alone. At least one read-out could not be matched to a standard name with certainty.

Molecular target: KA (kainate) receptor
Experiment: [3H]kainate binding assay
Details: [3H]kainate 0.5 nM, SPM, 0-4 °C, 60 min

## O=C(O)c1cn2c(CP(=O)(O)O)c(Cl)ccc2n1 [Example 30, 6-chloro-5-(phosphonomethyl)imidazo[1,2-a]pyridine-2-carboxylic acid]
  Ki IC50 Binding, KA: > 300 µM

## O=C(O)c1cn2cccc(CP(=O)(O)O)c2n1 [Example 23, 8-(phosphonomethyl)imidazo[1,2-a]pyridine-2-carboxylic acid]
  Ki IC50 Binding, KA: > 300 µM

## O=C(O)c1cn2cc(CP(=O)(O)O)ccc2n1 [Example 13, 6-(phosphonomethyl)imidazo[1,2-a]pyridine-2-carboxylic acid]
  Ki IC50 Binding, KA: > 300 µM

## O=C(O)c1cn2ccc(CP(=O)(O)O)cc2n1 [Example 18, 7-(phosphonomethyl)imidazo[1,2-a]pyridine-2-carboxylic acid]
  Ki IC50 Binding, KA: > 300 µM

## O=C(O)c1cn2c(C(O)P(=O)(O)O)cccc2n1 (centres unmarked) [Example 57, 5-(hydroxyphosphonomethyl)imidazo[1,2-a]pyridine-2-carboxylic acid, monohydrochloride]
  Ki IC50 Binding, KA: 89 µM
